This passage reports binding results from paper PMC9534812, “Hetero-pentamerization determines mobility and conductance of Glycine receptor α3 splice variants” (Cellular and Molecular Life Sciences, 2022).

Protein sequences, listed by entry. Tags and fused reporters are not part of them.
UniProt P07948: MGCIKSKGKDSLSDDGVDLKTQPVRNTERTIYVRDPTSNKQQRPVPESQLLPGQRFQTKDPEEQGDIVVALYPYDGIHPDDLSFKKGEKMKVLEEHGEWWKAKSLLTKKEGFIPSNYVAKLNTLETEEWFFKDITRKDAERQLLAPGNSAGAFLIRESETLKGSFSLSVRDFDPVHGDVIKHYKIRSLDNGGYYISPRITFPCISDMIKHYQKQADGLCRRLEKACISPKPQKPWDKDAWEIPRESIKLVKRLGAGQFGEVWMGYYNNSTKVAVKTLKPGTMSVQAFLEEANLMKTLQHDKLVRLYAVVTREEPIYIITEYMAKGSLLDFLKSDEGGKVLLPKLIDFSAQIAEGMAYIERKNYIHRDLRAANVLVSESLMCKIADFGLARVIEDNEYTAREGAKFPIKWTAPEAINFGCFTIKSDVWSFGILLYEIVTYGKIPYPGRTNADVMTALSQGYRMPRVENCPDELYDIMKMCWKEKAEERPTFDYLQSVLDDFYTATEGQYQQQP

These are yes or no findings as the source states them, for the method shown. Some entries that bind do so weakly or less than the wild type. Sequences can lack the tags named with a protein.

Assay [1] has as its target T1, GlyR-α3L-mCherry (glycine receptor α3 subunit, long splice variant L, N-terminally tagged with mCherry) (mouse) (UniProt Q91XP5).
T1 sequence: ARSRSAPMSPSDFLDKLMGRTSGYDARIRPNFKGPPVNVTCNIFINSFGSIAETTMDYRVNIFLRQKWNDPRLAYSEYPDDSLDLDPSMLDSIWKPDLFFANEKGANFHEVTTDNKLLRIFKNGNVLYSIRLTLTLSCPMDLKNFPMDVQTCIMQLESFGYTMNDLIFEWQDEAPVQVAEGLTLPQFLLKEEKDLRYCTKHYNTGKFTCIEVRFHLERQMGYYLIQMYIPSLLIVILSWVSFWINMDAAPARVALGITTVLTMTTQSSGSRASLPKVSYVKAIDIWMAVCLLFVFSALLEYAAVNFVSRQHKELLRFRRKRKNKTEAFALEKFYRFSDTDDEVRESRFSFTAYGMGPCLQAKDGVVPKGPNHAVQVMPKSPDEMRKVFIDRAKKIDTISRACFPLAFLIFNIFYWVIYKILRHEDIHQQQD
In words: dual-color temporal image cross-correlation spectroscopy (TICCS); live HEK293 cells, alternating two-colour TIRF excitation, room temperature; clusters removed by static mask; relative cross-correlation of eGFP and mCherry channels.

The target of assay [2] is Lyn-mCherry (tyrosine-protein kinase Lyn coupled to mCherry) (UniProt P07948). Described as above.
Assay [3] addresses GlyR-α3L-eGFP (glycine receptor α3 subunit, long splice variant L, N-terminally tagged with eGFP) (mouse) (UniProt Q91XP5). In words: subunit counting by stepwise photobleaching (TIRF microscopy); fixed HEK293 cells with low copy number expression (50 ng GlyR-α3L-eGFP, 0-500 ng GlyR-α3K-mCherry); eGFP bleaching steps per diffraction-limited spot, step histogram fitted with binomial models; room temperature.

B1: GlyR-α3L-eGFP (glycine receptor α3 subunit, long splice variant L, N-terminally tagged with eGFP) (receptor, mouse, UniProt Q91XP5 34-464, looked up)
chain: ARSRSAPMSPSDFLDKLMGRTSGYDARIRPNFKGPPVNVTCNIFINSFGSIAETTMDYRVNIFLRQKWNDPRLAYSEYPDDSLDLDPSMLDSIWKPDLFFANEKGANFHEVTTDNKLLRIFKNGNVLYSIRLTLTLSCPMDLKNFPMDVQTCIMQLESFGYTMNDLIFEWQDEAPVQVAEGLTLPQFLLKEEKDLRYCTKHYNTGKFTCIEVRFHLERQMGYYLIQMYIPSLLIVILSWVSFWINMDAAPARVALGITTVLTMTTQSSGSRASLPKVSYVKAIDIWMAVCLLFVFSALLEYAAVNFVSRQHKELLRFRRKRKNKTEAFALEKFYRFSDTDDEVRESRFSFTAYGMGPCLQAKDGVVPKGPNHAVQVMPKSPDEMRKVFIDRAKKIDTISRACFPLAFLIFNIFYWVIYKILRHEDIHQQQD
notes: Glycine receptor subunit alpha-3, mouse, splice variant L (464 residues); The receptor assembles as a pentamer; the molecule here is the subunit; also called L variant; GlyR-α3L-FP; source: HEK293, transiently transfected (calcium phosphate; truncated CMV promoter), in the membrane of live or fixed cells; not shown: eGFP, N-terminal, kept
Turning to B1, the binding result in assay [1] is on record as “binds”; in assay [2], “no binding”; in assay [3], “binds”.
